PubChem BioAssay AID1259308 | NCATS | 2017

Assay: 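Knock-downs that increase output of a recombinant reporter protein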 (primary screen)
Cells: human HEK293 embryonic kidney cells stably expressing firefly luciferase (HEK-CMV-Luc2-Hygro)
Reagents: single siRNA against human genes, 0.8 pmol siRNA per well
Duration: 72 h
Read-out: 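Reporter luminescence and viable-cell signal on separate replicate plates, given as percent of non-targeting control and median/MAD z-scores, plus per-cell luciferase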
Reading the numbers: total luciferase, z-score: higher = more reporter protein produced
Hit rule: 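An siRNA counts as active if its total luciferase robust z-score exceeds 3; genes with two or more such siRNAs out of three were retested with fresh siRNAs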
Meaning of the calls: active = raised luciferase; inactive = no rise
In all, the deposit lists about 59,000 reagents; below is an unselected part. About 1,510 of all reagents (2.6%) were called active. 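Calls use total luciferase alone and ignore viability, so some active siRNAs may act by altering cell number.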 Reagents against one gene are numbered here. Not all columns of the deposit are shown.

gene knocked down	siRNA no.	total luciferase, z-score	activity call
SNRPD1	1	2.55	inactive
SNRPD1	2	0.232	inactive
SNRPD1	3	1.45	inactive
NDOR1	1	0.788	inactive
NDOR1	2	2.57	inactive
NDOR1	3	0.0794	inactive
NDOR1	4	0.181	inactive
NDOR1	5	-1.49	inactive
NDOR1	6	0.331	inactive
ADSL	1	-0.193	inactive
ADSL	2	0.0463	inactive
ADSL	3	-0.0596	inactive
LRP2	1	0.658	inactive
LRP2	2	0.0938	inactive
LRP2	3	-0.387	inactive
DMRTC1	1	4.47	active
DMRTC1	2	1.32	inactive
DMRTC1	3	-1.39	inactive
NSFL1C	1	1.9	inactive
NSFL1C	2	-0.155	inactive
NSFL1C	3	-0.126	inactive
PPP1R3D	1	0.0568	inactive
PPP1R3D	2	-1.34	inactive
PPP1R3D	3	-0.202	inactive
PTGR2	1	0.304	inactive
PTGR2	2	-0.293	inactive
PTGR2	3	-0.0736	inactive
PRC1	1	1.83	inactive
PRC1	2	-1.95	inactive
PRC1	3	-0.401	inactive
ARHGDIB	1	1.79	inactive
ARHGDIB	2	-0.0533	inactive
ARHGDIB	3	-0.97	inactive
TSPYL4	1	-1.09	inactive
TSPYL4	2	0.683	inactive
TSPYL4	3	-0.234	inactive
UBE2W	1	-0.251	inactive
UBE2W	2	-0.858	inactive
UBE2W	3	-1.12	inactive
AQP12A	1	-0.139	inactive
AQP12A	2	0.0662	inactive
AQP12A	3	0.822	inactive
C1QTNF6	1	0.121	inactive
C1QTNF6	2	1.52	inactive
C1QTNF6	3	0.376	inactive
HTR2A	1	0.701	inactive
HTR2A	2	0.698	inactive
HTR2A	3	-1.51	inactive
MYL3	1	-0.647	inactive
MYL3	2	-1.33	inactive
MYL3	3	-0.328	inactive
WLS	1	0.32	inactive
WLS	2	-0.355	inactive
WLS	3	-0.463	inactive
AK2	1	-0.442	inactive
AK2	2	0.298	inactive
AK2	3	0.309	inactive

Reformatted: 7 of the entries above.
{"gene knocked down": "ADSL", "siRNA no.": 1, "total luciferase, z-score": -0.193, "activity call": "inactive"}
{"gene knocked down": "ADSL", "siRNA no.": 2, "total luciferase, z-score": 0.0463, "activity call": "inactive"}
{"gene knocked down": "ADSL", "siRNA no.": 3, "total luciferase, z-score": -0.0596, "activity call": "inactive"}
{"gene knocked down": "LRP2", "siRNA no.": 1, "total luciferase, z-score": 0.658, "activity call": "inactive"}
{"gene knocked down": "LRP2", "siRNA no.": 2, "total luciferase, z-score": 0.0938, "activity call": "inactive"}
{"gene knocked down": "LRP2", "siRNA no.": 3, "total luciferase, z-score": -0.387, "activity call": "inactive"}
{"gene knocked down": "DMRTC1", "siRNA no.": 1, "total luciferase, z-score": 4.47, "activity call": "active"}
